This note sets out measurements from PMC11863771 (Cell Communication and Signaling : CCS, 2025).

Amino acid sequences for entries named in this document (tags omitted).
UniProt P61073: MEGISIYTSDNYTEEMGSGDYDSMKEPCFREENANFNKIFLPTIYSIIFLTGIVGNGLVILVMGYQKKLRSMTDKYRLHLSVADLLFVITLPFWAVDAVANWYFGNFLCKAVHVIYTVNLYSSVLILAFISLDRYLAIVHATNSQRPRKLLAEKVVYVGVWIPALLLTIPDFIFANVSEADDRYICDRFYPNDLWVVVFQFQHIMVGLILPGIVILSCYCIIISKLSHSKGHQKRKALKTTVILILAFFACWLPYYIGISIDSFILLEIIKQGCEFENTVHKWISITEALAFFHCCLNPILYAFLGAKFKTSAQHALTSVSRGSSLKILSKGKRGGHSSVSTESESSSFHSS
UniProt P35372: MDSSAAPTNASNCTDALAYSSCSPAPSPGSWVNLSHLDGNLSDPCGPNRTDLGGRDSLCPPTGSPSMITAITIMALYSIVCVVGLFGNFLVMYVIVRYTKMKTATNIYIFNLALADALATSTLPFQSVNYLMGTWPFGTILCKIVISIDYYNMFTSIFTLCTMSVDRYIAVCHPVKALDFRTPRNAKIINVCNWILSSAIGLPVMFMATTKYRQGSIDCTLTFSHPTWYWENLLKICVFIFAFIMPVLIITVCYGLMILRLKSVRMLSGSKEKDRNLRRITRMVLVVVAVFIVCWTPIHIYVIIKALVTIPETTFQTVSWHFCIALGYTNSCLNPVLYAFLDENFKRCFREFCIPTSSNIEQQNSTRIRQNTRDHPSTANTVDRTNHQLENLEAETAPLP
UniProt P21453: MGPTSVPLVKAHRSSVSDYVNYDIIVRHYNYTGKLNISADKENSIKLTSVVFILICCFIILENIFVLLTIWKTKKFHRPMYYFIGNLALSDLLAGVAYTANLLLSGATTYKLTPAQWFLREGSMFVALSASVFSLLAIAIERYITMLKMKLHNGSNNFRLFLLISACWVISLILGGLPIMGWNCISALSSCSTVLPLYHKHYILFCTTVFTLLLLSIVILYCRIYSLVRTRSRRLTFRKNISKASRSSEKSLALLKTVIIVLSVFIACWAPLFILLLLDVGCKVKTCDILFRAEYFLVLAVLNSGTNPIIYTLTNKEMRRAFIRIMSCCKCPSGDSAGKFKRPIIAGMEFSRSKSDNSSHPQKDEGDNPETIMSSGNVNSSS
UniProt P04899: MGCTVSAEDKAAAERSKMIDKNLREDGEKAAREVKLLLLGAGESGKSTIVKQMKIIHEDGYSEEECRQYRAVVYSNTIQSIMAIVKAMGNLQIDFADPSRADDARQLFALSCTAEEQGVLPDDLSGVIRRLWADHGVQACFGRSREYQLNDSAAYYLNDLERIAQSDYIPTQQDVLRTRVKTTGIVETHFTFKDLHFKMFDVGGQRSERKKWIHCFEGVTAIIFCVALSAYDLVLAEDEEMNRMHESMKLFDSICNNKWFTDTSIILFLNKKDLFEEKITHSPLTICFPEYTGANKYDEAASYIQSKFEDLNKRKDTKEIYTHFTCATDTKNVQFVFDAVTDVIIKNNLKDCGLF

For one experiment, the target named is Flag-CXCR4-VC (human) (UniProt P61073). Nature of the experiment: split reporter; BiFC in HEK293A cells transfected with Flag-CXCR4-VC and a VN-tagged GPCR; fixed, confocal microscopy.
For the next experiment, the target named is Flag-CXCR4 (human) (UniProt P61073). Nature of the experiment: proximity ligation; double PLA in HEK293A cells expressing Flag-CXCR4 and an HA-tagged GPCR; anti-CXCR4 (4G10) and anti-HA-tag (C29F4) antibodies, anti-mouse and anti-rabbit probes.
In the next experiment the target is µOR1-Rluc8 (human) (UniProt P35372). Nature of the experiment: FRET or BRET; quantitative BRET saturation in HEK293A cells: fixed amount of Rluc8-tagged donor, increasing amounts of mCit-tagged acceptor, coelenterazine h 5 µM; no ligand, no further receptor coexpressed. On the technique in general: In BRET a luciferase serves as donor, and the signal depends on an acceptor being close.

The target in experiment [1] is S1P1-mCit (human) (UniProt P21453). The experiment in a line: FRET or BRET; ligand-induced Gαi2 recruitment: BRET1 between GPCR-mCit and Gαi2-Rluc8 (with Gβ1 and Gγ2) in HEK293A cells, CXCL12 (10 nM) and/or S1P (10 nM); with or without coexpressed MYC-S1P1 or Flag-CXCR4.
Experiment [2] shares this target. The experiment in a line: FRET or BRET; basal pre-association: BRET1 between GPCR-mCit and Gαi2-Rluc8 (cotransfected with Gβ1 and Gγ2) in HEK293A cells, no ligand; with or without coexpressed MYC-S1P1 or Flag-CXCR4.
The target in a further experiment is HA-S1P1 (human) (UniProt P21453). The experiment in a line: proximity ligation; single PLA in transfected HEK293A cells (one antibody, both probes) to detect GPCR homomers.
In experiment [3] the target is CXCR4 (endogenous) (human (endogenous in KARPAS299 and primary T cells)) (UniProt P61073). Nature of the experiment: proximity ligation; double PLA in KARPAS299 cells (sgControl), endogenous receptors; anti-CXCR4 (Ulocuplumab) and anti-S1P1 (#218713), both probe orders.
In experiment [4] the target is S1P1 (endogenous) (human (endogenous in KARPAS299 and primary T cells)) (UniProt P21453). Nature of the experiment: proximity ligation; single PLA in KARPAS299 cells (one antibody for both probes) to identify homomers, endogenous receptors.
The target of experiment [5] is CXCR4 (endogenous) (human (endogenous in KARPAS299 and primary T cells)) (UniProt P61073). Nature of the experiment: proximity ligation; double PLA in primary human CD4+ T cells, endogenous receptors; anti-CXCR4 (Ulocuplumab) and anti-S1P1 (#218713), both probe orders.
Experiment [6] concerns the target S1P1 (endogenous) (human (endogenous in KARPAS299 and primary T cells)) (UniProt P21453). The experiment in a line: proximity ligation; single PLA in primary human CD4+ T cells (one antibody for both probes) to detect homomers, endogenous receptors.

Results are given in words; binding and its absence hold for the method and conditions named. In cells and extracts the contact can be indirect. Some results given as binding are weak or reduced against the parent protein; the word gives no strength.

In the case of “HA-µOR1-VN (from UniProt P35372 1-400) (receptor)”, the binding result with Flag-CXCR4-VC (human) is “no binding”.
In the case of “HA-µOR1 (from UniProt P35372 1-400) (receptor)”, the binding result in the experiment with Flag-CXCR4 (human) is reported as “no binding”.
Consider “HA-S1P1-VN (from UniProt P21453 1-382) (receptor)”, for which, in the experiment with Flag-CXCR4-VC (human), the binding entry is given as “binds”.
Consider “CXCR4-mCit (from UniProt P61073 1-352) (receptor)”, for which, in the experiment with µOR1-Rluc8 (human), the binding result is recorded as “no binding”.
Regarding Gαi2-Rluc8 (from UniProt P04899 1-355), the binding entry in the experiment with S1P1-mCit (human) [1] and with S1P1-mCit (human) [2] was “binds” in each case.
For “HA-S1P1 (from UniProt P21453 1-382) (receptor)”, the binding result with Flag-CXCR4 (human) and with HA-S1P1 (human) was “binds” throughout.
In the case of “S1P1 (endogenous) (from UniProt P21453 1-382) (receptor)”, the binding result in experiment [3], in experiment [4], in experiment [5] and in [6] was “binds” each time.
